From the supplement of paper PMC10849652
The other results are listed elsewhere or left out.

The chains behind the UniProt entries cited, without tags or fusion partners. Where a name states a change or a piece, a line headed by the entry shows the natural chain unless it says otherwise.
UniProt Q8TEB1, whole entry, looked up: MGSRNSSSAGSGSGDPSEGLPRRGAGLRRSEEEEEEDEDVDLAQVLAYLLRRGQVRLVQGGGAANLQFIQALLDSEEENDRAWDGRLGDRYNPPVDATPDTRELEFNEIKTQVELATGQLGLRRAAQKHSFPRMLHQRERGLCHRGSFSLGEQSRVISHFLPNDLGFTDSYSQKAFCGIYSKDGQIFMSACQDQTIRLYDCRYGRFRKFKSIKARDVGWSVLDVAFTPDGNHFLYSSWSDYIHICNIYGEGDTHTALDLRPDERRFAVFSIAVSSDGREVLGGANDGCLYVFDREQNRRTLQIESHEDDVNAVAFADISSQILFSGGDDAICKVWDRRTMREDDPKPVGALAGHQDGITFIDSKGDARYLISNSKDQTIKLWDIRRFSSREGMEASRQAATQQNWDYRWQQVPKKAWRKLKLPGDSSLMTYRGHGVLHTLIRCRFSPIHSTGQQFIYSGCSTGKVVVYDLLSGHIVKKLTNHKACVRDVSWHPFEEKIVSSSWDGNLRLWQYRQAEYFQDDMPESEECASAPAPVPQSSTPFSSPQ
UniProt P32929, whole entry, looked up: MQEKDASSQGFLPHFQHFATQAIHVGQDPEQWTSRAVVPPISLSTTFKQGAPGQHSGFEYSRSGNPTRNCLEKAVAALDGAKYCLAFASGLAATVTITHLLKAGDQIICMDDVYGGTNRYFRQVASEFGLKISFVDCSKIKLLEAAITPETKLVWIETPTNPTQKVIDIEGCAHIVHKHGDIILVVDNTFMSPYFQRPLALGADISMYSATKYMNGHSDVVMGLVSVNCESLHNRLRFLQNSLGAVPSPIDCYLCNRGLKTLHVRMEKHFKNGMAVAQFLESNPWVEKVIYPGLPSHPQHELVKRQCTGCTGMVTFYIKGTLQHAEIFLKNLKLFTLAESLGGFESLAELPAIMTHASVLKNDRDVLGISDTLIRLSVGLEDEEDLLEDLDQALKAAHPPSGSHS
UniProt P51397: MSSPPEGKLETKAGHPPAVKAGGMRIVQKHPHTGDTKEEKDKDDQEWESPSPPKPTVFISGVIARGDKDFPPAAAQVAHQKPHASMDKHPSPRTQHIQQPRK
UniProt Q13617, whole entry, looked up: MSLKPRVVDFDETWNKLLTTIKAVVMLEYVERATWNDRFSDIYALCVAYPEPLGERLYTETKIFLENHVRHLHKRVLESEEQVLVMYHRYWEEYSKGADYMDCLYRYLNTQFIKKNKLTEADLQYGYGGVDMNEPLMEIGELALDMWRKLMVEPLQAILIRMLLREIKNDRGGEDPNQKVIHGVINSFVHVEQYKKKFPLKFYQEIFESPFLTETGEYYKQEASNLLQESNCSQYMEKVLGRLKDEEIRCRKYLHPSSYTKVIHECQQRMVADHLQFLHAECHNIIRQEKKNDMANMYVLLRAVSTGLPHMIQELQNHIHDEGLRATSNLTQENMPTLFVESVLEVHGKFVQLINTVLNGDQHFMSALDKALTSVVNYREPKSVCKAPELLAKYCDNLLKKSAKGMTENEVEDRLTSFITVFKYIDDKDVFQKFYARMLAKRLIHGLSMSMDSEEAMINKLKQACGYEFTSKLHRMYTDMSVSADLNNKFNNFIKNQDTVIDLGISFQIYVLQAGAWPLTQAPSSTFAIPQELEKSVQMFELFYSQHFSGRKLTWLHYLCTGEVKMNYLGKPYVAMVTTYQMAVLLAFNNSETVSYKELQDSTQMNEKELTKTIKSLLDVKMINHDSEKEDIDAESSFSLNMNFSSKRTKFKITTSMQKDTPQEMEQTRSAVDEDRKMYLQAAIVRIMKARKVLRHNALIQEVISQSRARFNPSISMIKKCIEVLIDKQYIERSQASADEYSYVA
UniProt P26232: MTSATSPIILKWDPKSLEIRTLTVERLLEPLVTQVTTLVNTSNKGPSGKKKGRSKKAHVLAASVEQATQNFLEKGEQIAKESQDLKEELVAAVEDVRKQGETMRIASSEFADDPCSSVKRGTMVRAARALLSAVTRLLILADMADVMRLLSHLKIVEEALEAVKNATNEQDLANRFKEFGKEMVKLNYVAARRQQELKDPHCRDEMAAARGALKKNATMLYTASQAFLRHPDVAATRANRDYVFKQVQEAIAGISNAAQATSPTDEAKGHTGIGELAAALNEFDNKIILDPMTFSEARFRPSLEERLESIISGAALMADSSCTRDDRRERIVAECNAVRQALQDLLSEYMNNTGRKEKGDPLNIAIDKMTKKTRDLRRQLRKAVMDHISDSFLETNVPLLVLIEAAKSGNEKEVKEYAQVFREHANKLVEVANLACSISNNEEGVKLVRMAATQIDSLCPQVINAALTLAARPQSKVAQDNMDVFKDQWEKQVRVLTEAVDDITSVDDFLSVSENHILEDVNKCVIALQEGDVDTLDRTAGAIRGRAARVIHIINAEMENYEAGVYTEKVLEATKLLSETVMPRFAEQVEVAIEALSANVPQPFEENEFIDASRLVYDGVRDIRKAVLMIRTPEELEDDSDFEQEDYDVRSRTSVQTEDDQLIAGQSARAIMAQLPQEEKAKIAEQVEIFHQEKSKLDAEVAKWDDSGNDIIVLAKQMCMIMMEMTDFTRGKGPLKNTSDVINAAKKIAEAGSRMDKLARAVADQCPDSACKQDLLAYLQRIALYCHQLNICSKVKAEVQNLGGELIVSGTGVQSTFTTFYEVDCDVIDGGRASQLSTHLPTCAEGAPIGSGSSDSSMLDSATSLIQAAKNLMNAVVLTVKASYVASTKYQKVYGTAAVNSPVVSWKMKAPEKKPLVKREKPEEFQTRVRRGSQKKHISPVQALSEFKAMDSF
UniProt Q9BTE1, whole entry, looked up: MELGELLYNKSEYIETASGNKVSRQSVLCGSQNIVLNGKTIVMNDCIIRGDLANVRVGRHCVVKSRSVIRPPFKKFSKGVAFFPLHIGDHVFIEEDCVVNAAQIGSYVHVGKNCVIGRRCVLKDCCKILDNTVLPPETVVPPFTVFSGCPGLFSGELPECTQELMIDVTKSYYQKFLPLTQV
UniProt P61803: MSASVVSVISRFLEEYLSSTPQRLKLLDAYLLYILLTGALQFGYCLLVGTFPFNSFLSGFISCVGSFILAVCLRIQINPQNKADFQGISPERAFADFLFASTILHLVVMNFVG
UniProt Q96EP5: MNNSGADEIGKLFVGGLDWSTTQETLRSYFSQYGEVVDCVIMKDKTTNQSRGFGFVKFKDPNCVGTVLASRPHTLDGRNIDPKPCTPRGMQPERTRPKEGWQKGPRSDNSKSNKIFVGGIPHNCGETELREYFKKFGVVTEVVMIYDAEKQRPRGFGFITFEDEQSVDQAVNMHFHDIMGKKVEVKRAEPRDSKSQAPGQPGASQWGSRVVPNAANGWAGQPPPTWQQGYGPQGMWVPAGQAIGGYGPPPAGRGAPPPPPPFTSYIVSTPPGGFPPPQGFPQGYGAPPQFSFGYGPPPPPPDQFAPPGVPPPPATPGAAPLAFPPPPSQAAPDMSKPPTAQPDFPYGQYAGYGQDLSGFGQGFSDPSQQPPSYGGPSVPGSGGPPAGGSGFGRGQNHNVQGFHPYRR
UniProt P99999: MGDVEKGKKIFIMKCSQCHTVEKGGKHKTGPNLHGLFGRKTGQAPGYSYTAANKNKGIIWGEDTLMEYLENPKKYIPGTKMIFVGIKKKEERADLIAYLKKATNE
UniProt Q9BWK5: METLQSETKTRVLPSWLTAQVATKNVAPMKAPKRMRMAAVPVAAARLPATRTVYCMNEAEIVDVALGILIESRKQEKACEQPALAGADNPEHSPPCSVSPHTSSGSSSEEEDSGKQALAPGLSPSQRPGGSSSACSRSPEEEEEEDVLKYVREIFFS
UniProt P0DMU9: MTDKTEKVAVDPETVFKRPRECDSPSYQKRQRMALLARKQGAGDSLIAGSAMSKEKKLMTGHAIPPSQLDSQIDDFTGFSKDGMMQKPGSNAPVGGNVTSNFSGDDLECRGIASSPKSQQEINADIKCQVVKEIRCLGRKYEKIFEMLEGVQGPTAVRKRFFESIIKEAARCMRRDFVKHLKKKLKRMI
UniProt Q9NWV4: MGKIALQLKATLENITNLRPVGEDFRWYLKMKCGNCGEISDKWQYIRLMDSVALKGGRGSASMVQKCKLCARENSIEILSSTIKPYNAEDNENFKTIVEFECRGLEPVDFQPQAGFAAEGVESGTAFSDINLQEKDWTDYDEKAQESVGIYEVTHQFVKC
UniProt P61962: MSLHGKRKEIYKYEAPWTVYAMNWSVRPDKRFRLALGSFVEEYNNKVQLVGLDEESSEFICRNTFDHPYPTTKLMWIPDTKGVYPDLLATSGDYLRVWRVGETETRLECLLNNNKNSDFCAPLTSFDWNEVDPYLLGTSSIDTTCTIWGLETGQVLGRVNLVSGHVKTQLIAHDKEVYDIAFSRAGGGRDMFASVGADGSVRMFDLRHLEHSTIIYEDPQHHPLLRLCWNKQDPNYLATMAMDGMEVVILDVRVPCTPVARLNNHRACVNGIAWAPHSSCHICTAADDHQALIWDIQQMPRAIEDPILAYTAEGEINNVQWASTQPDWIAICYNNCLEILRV
UniProt P08574: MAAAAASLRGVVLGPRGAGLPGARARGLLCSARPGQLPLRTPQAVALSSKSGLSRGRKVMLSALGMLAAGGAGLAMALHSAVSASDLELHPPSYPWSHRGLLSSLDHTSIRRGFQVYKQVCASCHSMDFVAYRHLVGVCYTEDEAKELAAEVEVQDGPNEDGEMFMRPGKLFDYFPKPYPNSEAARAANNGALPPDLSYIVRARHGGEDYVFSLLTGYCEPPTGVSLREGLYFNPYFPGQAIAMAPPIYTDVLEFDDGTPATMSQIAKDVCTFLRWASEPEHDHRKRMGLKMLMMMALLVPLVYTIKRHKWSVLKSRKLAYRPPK
UniProt P00387: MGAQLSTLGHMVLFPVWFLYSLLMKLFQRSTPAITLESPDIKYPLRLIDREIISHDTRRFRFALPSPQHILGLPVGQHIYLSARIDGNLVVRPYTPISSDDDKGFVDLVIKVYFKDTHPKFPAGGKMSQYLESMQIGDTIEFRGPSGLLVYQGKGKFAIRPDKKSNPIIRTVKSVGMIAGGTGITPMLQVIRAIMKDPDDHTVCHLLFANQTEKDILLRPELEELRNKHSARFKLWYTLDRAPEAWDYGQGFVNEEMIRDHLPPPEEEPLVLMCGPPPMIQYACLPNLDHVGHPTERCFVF
UniProt Q9Y4B6: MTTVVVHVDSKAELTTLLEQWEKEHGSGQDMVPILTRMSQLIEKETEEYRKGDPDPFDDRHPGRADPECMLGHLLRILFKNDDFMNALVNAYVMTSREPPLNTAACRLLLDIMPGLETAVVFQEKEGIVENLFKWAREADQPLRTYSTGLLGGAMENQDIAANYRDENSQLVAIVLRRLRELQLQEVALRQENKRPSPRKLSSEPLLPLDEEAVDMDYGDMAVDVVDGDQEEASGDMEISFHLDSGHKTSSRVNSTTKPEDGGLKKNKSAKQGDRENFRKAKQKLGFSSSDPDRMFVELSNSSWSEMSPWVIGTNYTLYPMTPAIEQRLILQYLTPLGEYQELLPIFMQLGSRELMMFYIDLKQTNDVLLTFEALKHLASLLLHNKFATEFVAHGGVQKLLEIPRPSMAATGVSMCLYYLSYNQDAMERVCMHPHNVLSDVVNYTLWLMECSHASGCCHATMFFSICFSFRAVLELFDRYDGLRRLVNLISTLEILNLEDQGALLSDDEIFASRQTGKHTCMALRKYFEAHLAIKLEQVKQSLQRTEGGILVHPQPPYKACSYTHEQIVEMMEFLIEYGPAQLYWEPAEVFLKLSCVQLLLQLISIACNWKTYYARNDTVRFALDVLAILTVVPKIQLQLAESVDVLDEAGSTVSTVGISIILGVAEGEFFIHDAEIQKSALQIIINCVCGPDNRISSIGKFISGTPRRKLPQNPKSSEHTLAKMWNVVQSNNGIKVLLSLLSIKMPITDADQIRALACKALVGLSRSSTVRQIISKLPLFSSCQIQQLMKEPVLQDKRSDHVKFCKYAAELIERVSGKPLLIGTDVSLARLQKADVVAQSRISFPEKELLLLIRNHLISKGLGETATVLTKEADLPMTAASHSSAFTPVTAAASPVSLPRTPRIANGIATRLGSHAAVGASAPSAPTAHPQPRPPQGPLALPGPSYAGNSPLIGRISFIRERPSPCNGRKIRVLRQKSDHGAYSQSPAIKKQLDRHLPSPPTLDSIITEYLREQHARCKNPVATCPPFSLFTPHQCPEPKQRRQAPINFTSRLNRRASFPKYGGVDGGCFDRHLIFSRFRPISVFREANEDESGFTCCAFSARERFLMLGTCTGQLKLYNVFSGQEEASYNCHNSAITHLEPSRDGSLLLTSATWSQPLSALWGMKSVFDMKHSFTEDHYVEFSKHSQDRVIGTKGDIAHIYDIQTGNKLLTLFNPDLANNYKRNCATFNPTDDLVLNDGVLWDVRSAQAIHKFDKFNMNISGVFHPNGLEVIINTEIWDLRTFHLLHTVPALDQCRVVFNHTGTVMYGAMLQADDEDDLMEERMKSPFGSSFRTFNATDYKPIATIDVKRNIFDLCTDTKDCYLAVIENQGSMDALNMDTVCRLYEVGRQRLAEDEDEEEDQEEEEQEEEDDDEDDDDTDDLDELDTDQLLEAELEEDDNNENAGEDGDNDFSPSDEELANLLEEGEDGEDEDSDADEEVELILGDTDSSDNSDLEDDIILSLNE

Compound: c1cn2cc(-c3ccc4cn[nH]c4c3)nc(Nc3ccc(N4CCOCC4)cc3)c2n1 [entospletinib]
Assay: log2 fold change, soluble protein after heating vs DMSO (PISA); higher = thermal stabilisation; K562 cells, 10 uM, 30 min; active = over 0.2 and 3.5 SD of the protein, either way, in both replicates (recomputed)
In short: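 K562 cells at 2×10^6 cells/mL were given 10 μM compound for 30 min. Aliquots then went through 3 min of heating across 48°C-58°C, were pooled, and were extracted in PBS with 0.5% NP-40 at 4°C, and the supernatant after 21,000xg for 90 min was quantified by TMTpro 16plex LC-MS/MS with channel sums equalised. Thermal stability relative to control samples, from duplicates, is given as log2 fold change.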

log2 fold change, inactive:
DCAF11 (UniProt Q8TEB1) 0.007
CTH (UniProt P32929) -0.026
DAP (UniProt P51397) 0.067
DCAF17 (UniProt Q5H9S7) -0.036
CYB5A (UniProt P00167) 0.025
CUL2 isoform 2 (UniProt Q13617) 0.005
CTNNA2 (UniProt P26232) -0.05
DCTN5 (UniProt Q9BTE1) 0.055
CYB561 (UniProt P49447) 0.073
CTU2 (UniProt Q2VPK5) 0.036
DAD1 (UniProt P61803) -0.149
DAZAP1 (UniProt Q96EP5) 0.071
CYCS (UniProt P99999) 0.014
CYB5B, A0A499FJ32 0.055
CTNS isoform 2 (UniProt O60931) 0.068
CYREN (UniProt Q9BWK5) -0.144
CT45A10 (UniProt P0DMU9) 0.051
CSRP1 (UniProt P21291) -0.03
CZIB (UniProt Q9NWV4) 0.039
CYHR1 (UniProt E9PJD7) -0.003
DCPS (UniProt Q96C86) -0.048
DCAF7 (UniProt P61962) 0.029
CYTH1 (UniProt Q15438) 0.16
CYC1 (UniProt P08574) 0.022
CSPG5 (UniProt O95196) 0.197
CYB5R3 isoform 3 (UniProt P00387) -0.006
CXorf56 (UniProt Q9H5V9) -0.026
DCAF1 (UniProt Q9Y4B6) 0.022
CYP20A1 (UniProt Q6UW02) -0.087

Reprinted at random: 2 entries already listed.
log2 fold change, inactive:
DCAF17 (UniProt Q5H9S7) -0.036
DCAF7 (UniProt P61962) 0.029
